In paper PMC11065422:
Results are given in words; binding and its absence hold for the method and conditions named. In cells and extracts the contact can be indirect. Binding calls can cover weak binding; strength is not graded here.

Molecular target: Numb (mouse (endogenous in C2C12))
Test: co-IP; IP of endogenous Numb with anti-Numb antibody (control Ig) from lysates of three independent samples of C2C12 myotubes; Western blot with anti-Septin 7 and anti-Numb

binding: binds
B1: Septin 7 (protein, UniProt O55131 1-436)
chain: MSVSARSAAAEERSVNCGTMAQPKNLEGYVGFANLPNQVYRKSVKRGFEFTLMVVGESGLGKSTLINSLFLTDLYSPEYPGPSHRIKKTVQVEQSKVLIKEGGVQLLLTIVDTPGFGDAVDNSNCWQPVIDYIDSKFEDYLNAESRVNRRQMPDNRVQCCLYFIAPSGHGLKPLDIEFMKRLHEKVNIIPLIAKADTLTPEECQQFKKQIMKEIQEHKIKIYEFPETDDEEENKLVKKIKDRLPLAVVGSNTIIEVNGKRVRGRQYPWGVAEVENGEHCDFTILRNMLIRTHMQDLKDVTNNVHYENYRSRKLAAVTYNGVDNNKNKGQLTKSPLAQMEEERREHVAKMKKMEMEMEQVFEMKVKEKVQKLKDSEAELQRRHEQMKKNLEAQHKELEEKRRQFEEEKANWEAQQRILEQQNSSRTLEKNKKKGKIF
